{"source": "patent US20180251847A1", "about": "“METHOD OF PREDICTING THE TUMOR RESPONSE TO DNA METHYLATION INHIBITORS AND ALTERNATIVE THERAPEUTIC REGIMEN FOR OVERCOMING RESISTANCE” (PALACKY UNIVERSITY, OLOMOUC, priority 2014, published 2018)", "key": {"HCT116": {"tested_on": "HCT116", "test": "MTT based cell survival assay, parental HCT116", "details": "Homo sapiens, HCT-116, 72 h drug treatment", "method": "To study the mechanism of resistance towards DNA methylation inhibitor, 2′-deoxy-5-azacytidine, we used the human colorectal cancer cell line (HCT116), human promyelocytic leukemia cells (HL-60), and human breast adenocarcinoma cell line (MCF-7) obtained from American Type Culture Collection (Manassas, Va.). The cell lines were cultured in complete growth media (Sigma-Aldrich, St. Louis, Mo.), supplemented with fetal bovine serum (FBS, PAN-Biotech GmbH, Aidenbach, Germany), 100 U/mL penicillin (Biotika, Slovenská L'upča, Slovak Republic) and 50 μg/mL streptomycin (Sigma-Aldrich), and the cultures were maintained at 37° C. and 5% CO2, in a humidified incubator. […]\nTo determine the IC50 of the epigenetic drugs (Tocris Bioscience, Bristol, United Kingdom), four independent experiments were performed using triplicate wells of 96 well plates. […] The wells with medium alone were included alongside as blank for absorbance readings. […]\n(§1) Cross resistance was determined as the fold increase, whereas, the sensitivity was determined as the fold decrease in the IC50 of the drugs for the resistant cell lines compared to their genetically identical drug sensitive counterpart."}, "R1.1 (HCT116-RDAC)": {"tested_on": "R1.1 (HCT116-RDAC)", "test": "MTT based cell survival assay, DAC resistant HCT116 clone R1.1", "parameters": "species or system human", "method": "(§2) The DAC resistant HCT116 cell lines were developed using two methods.\n(§3) The method is primarily based on reduction of yellow colored tetrazolium salt, 3-(4,5-dimethylthiazol-2-yl)-2,5-diphenyltetrazolium bromide (MTT) to insoluble purple colored formazan crystals by NAD(P)H-dependent oxidoreductase enzymes in mitochondria of the viable cell.\n(§4) Cells in 80 μL of medium were plated in each of the experimental and the control wells, followed by addition of 20 μL medium with five-fold drug concentration to experimental wells. The wells with medium alone were included alongside as blank for absorbance readings. After 72 h of drug treatment, 10 μL MTT (Sigma-Aldrich) prepared in 1×PBS (5 mg/mL) was added to all wells including blank and control, and incubated until the purple formazan crystals were visible after which 100 μL of detergent (10% SDS, pH: 5.5) was added and the plates were incubated overnight to solubilize the formazan and the cellular material.\nas §1"}, "R1.2 (HCT116-RDAC)": {"tested_on": "R1.2 (HCT116-RDAC)", "test": "MTT based cell survival assay, DAC resistant HCT116 clone R1.2", "parameters": "species or system human", "method": "as §2, §3, §4, §1"}, "R1.3 (HCT116-RDAC)": {"tested_on": "R1.3 (HCT116-RDAC)", "test": "MTT based cell survival assay, DAC resistant HCT116 clone R1.3", "details": "Homo sapiens, HCT-116; R1.3, MTT, 72 h drug treatment", "method": "as §2, §3, §4, §1"}, "R1.4 (HCT116-RDAC)": {"tested_on": "R1.4 (HCT116-RDAC)", "test": "MTT based cell survival assay, DAC resistant HCT116 clone R1.4", "parameters": "species or system human", "method": "as §2, §3, §4, §1"}, "R2.2 (HCT116-RDAC)": {"tested_on": "R2.2 (HCT116-RDAC)", "test": "MTT based cell survival assay, DAC resistant HCT116 clone R2.2", "parameters": "species or system human", "method": "as §2, §3, §4, §1"}}, "data": [{"smiles": "O=C(CCCCCCC(=O)Nc1ccccc1)NO", "note": "[Vorinostat]", "values": [{"measurement": "IC50", "setting": "HCT116", "value": 680, "unit": "nM"}, {"measurement": "IC50", "setting": "R1.1 (HCT116-RDAC); Homo sapiens, HCT-116, R1.1, MTT, 72 h drug treatment", "value": 840, "unit": "nM"}, {"measurement": "fold change (resistance index)", "setting": "R1.1 (HCT116-RDAC); IC50 R1.1 / IC50 HCT116", "value": "(1.24) fold"}, {"measurement": "IC50", "setting": "R1.2 (HCT116-RDAC); Homo sapiens, HCT-116, R1.2, MTT, 72 h drug treatment", "value": 940, "unit": "nM"}, {"measurement": "fold change (resistance index)", "setting": "R1.2 (HCT116-RDAC); IC50 R1.2 / IC50 HCT116", "value": "(1.39) fold"}, {"measurement": "IC50", "setting": "R1.3 (HCT116-RDAC)", "value": 860, "unit": "nM"}, {"measurement": "IC50", "setting": "R1.4 (HCT116-RDAC); Homo sapiens, HCT-116, R1.4, MTT, 72 h drug treatment", "value": 920, "unit": "nM"}, {"measurement": "fold change (resistance index)", "setting": "R1.4 (HCT116-RDAC); IC50 R1.4 / IC50 HCT116", "value": "(1.37) fold"}, {"measurement": "IC50", "setting": "R2.2 (HCT116-RDAC); Homo sapiens, HCT-116, R2.2, MTT, 72 h drug treatment", "value": 800, "unit": "nM"}, {"measurement": "fold change (resistance index)", "setting": "R2.2 (HCT116-RDAC); IC50 R2.2 / IC50 HCT116", "value": "(1.19) fold"}]}]}
